# Results: the supplement of paper PMC8728848
# Some of the results follow.
# How the values were obtained:
# Assay in all cases: glycan array binding signal (z-score within array); higher = stronger binding
# Settings in all cases: glycan notation: IUPAC condensed, linker removed
# [1] = target: GlcNAc(b1-3)Gal(b1-4)Glc
# Outline: (§1)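 Glycan array data were curated from 3228 arrays in the Consortium for Functional Glycomics database and kept only where the protein sequence was available. Glycan names were converted to IUPAC-condensed notation, and columns mapping to the same glycan were averaged. The binding signal is a within-array Z-score, averaged across arrays of the same protein sequence at different concentrations or buffers and across linkers. Negative Z-scores can be read as non-binding.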
# [2] = target: GlcNAc(b1-3)Gal(b1-4)GlcNAc
# Outline: as §1
# [3] = target: GlcNAc(b1-3)Gal(b1-4)GlcNAc(b1-2)Man(a1-3)[GlcNAc(b1-3)Gal(b1-4)GlcNAc(b1-2)Man(a1-6)]Man(b1-4)GlcNAc(b1-4)GlcNAc
# Outline: as §1
# [4] = target: GlcNAc(b1-3)Gal(b1-4)GlcNAc(b1-2)Man(a1-3)[GlcNAc(b1-3)Gal(b1-4)GlcNAc(b1-2)Man(a1-6)]Man(b1-4)GlcNAc(b1-4)[Fuc(a1-6)]GlcNAc
# Outline: as §1
# [5] = target: GlcNAc(b1-3)Gal(b1-4)GlcNAc(b1-2)[GlcNAc(b1-3)Gal(b1-4)GlcNAc(b1-6)]Man(a1-6)[GlcNAc(b1-3)Gal(b1-4)GlcNAc(b1-2)Man(a1-3)]Man(b1-4)GlcNAc(b1-4)GlcNAc
# Outline: as §1
# [6] = target: GlcNAc(b1-3)Gal(b1-4)GlcNAc(b1-3)Gal(b1-4)GlcNAc
# Outline: as §1
# [7] = target: GlcNAc(b1-3)Gal(b1-4)GlcNAc(b1-3)Gal(b1-4)GlcNAc(b1-2)Man(a1-3)[GlcNAc(b1-3)Gal(b1-4)GlcNAc(b1-3)Gal(b1-4)GlcNAc(b1-2)Man(a1-6)]Man(b1-4)GlcNAc(b1-4)GlcNAc
# Outline: as §1
# [8] = target: GlcNAc(b1-3)Gal(b1-4)GlcNAc(b1-3)Gal(b1-4)GlcNAc(b1-2)Man(a1-3)[GlcNAc(b1-3)Gal(b1-4)GlcNAc(b1-3)Gal(b1-4)GlcNAc(b1-2)Man(a1-6)]Man(b1-4)GlcNAc(b1-4)[Fuc(a1-6)]GlcNAc
# Outline: as §1
# [9] = target: GlcNAc(b1-3)Gal(b1-4)GlcNAc(b1-3)Gal(b1-4)GlcNAc(b1-2)[GlcNAc(b1-3)Gal(b1-4)GlcNAc(b1-3)Gal(b1-4)GlcNAc(b1-6)]Man(a1-6)[GlcNAc(b1-3)Gal(b1-4)GlcNAc(b1-3)Gal(b1-4)GlcNAc(b1-2)Man(a1-3)]Man(b1-4)GlcNAc(b1-4)[Fuc(a1-6)]GlcNAc
# Outline: as §1
# [10] = target: GlcNAc(b1-3)Gal(b1-4)GlcNAc(b1-3)Gal(b1-4)GlcNAc(b1-3)Gal(b1-4)GlcNAc(b1-2)Man(a1-3)[GlcNAc(b1-3)Gal(b1-4)GlcNAc(b1-3)Gal(b1-4)GlcNAc(b1-3)Gal(b1-4)GlcNAc(b1-2)Man(a1-6)]Man(b1-4)GlcNAc(b1-4)GlcNAc
# Outline: as §1
# [11] = target: GlcNAc(b1-3)Gal(b1-4)GlcNAc(b1-3)Gal(b1-4)GlcNAc(b1-3)Gal(b1-4)GlcNAc(b1-2)Man(a1-3)[GlcNAc(b1-3)Gal(b1-4)GlcNAc(b1-3)Gal(b1-4)GlcNAc(b1-3)Gal(b1-4)GlcNAc(b1-2)Man(a1-6)]Man(b1-4)GlcNAc(b1-4)[Fuc(a1-6)]GlcNAc
# Outline: as §1
# [12] = target: GlcNAc(b1-3)Gal(b1-4)GlcNAc(b1-3)Gal(b1-4)GlcNAc(b1-3)Gal(b1-4)GlcNAc(b1-2)[GlcNAc(b1-3)Gal(b1-4)GlcNAc(b1-3)Gal(b1-4)GlcNAc(b1-3)Gal(b1-4)GlcNAc(b1-6)]Man(a1-6)[GlcNAc(b1-3)Gal(b1-4)GlcNAc(b1-3)Gal(b1-4)GlcNAc(b1-3)Gal(b1-4)GlcNAc(b1-2)Man(a1-3)]Man(b1-4)GlcNAc(b1-4)[Fuc(a1-6)]GlcNAc
# Outline: as §1
# [13] = target: GlcNAc(b1-3)Gal(b1-4)GlcNAc(b1-3)Gal(b1-4)GlcNAc(b1-3)Gal(b1-4)GlcNAc(b1-3)Gal(b1-4)GlcNAc(b1-2)Man(a1-3)[GlcNAc(b1-3)Gal(b1-4)GlcNAc(b1-3)Gal(b1-4)GlcNAc(b1-3)Gal(b1-4)GlcNAc(b1-3)Gal(b1-4)GlcNAc(b1-2)Man(a1-6)]Man(b1-4)GlcNAc(b1-4)GlcNAc
# Outline: as §1
# [14] = target: GlcNAc(b1-3)Gal(b1-4)GlcNAc(b1-3)Gal(b1-4)GlcNAc(b1-3)Gal(b1-4)GlcNAc(b1-3)Gal(b1-4)GlcNAc(b1-2)Man(a1-3)[GlcNAc(b1-3)Gal(b1-4)GlcNAc(b1-3)Gal(b1-4)GlcNAc(b1-3)Gal(b1-4)GlcNAc(b1-3)Gal(b1-4)GlcNAc(b1-2)Man(a1-6)]Man(b1-4)GlcNAc(b1-4)[Fuc(a1-6)]GlcNAc
# Outline: as §1
# [15] = target: GlcNAc(b1-3)Gal(b1-4)GlcNAc(b1-3)Gal(b1-4)GlcNAc(b1-3)Gal(b1-4)GlcNAc(b1-3)Gal(b1-4)GlcNAc(b1-2)[GlcNAc(b1-3)Gal(b1-4)GlcNAc(b1-3)Gal(b1-4)GlcNAc(b1-3)Gal(b1-4)GlcNAc(b1-3)Gal(b1-4)GlcNAc(b1-6)]Man(a1-6)[GlcNAc(b1-3)Gal(b1-4)GlcNAc(b1-3)Gal(b1-4)GlcNAc(b1-3)Gal(b1-4)GlcNAc(b1-3)Gal(b1-4)GlcNAc(b1-2)Man(a1-3)]Man(b1-4)GlcNAc(b1-4)[Fuc(a1-6)]GlcNAc
# Outline: as §1
# [16] = target: GlcNAc(b1-3)Gal(b1-4)GlcNAc(b1-3)Gal(b1-4)GlcNAc(b1-3)GalNAc
# Outline: as §1
# [17] = target: GlcNAc(b1-3)Gal(b1-4)GlcNAc(b1-3)GalNAc
# Outline: as §1
# [18] = target: GlcNAc(b1-3)Gal(b1-4)GlcNAc(b1-3)[GlcNAc(b1-3)Gal(b1-4)GlcNAc(b1-3)]GalNAc
# Outline: as §1
# [19] = target: GlcNAc(b1-3)Gal(b1-4)GlcNAc(b1-6)[Gal(b1-3)]GalNAc
# Outline: as §1
# [20] = target: GlcNAc(b1-3)Gal(b1-4)GlcNAc(b1-6)[GlcNAc(b1-3)Gal(b1-3)]GalNAc
# Outline: as §1
# [21] = target: GlcNAc(b1-3)Gal(b1-4)GlcNAc(b1-6)[GlcNAc(b1-3)]Gal(b1-4)GlcNAc
# Outline: as §1
# [22] = target: GlcNAc(b1-3)GalNAc
# Outline: as §1
# [23] = target: GlcNAc(b1-3)Man
# Outline: as §1
# [24] = target: GlcNAc(b1-3)[GlcNAc(b1-4)][GlcNAc(b1-6)]GlcNAc
# Outline: as §1
# [25] = target: GlcNAc(b1-3)[GlcNAc(b1-6)]Gal(b1-4)GlcNAc
# Outline: as §1
# [26] = target: GlcNAc(b1-3)[GlcNAc(b1-6)]GalNAc
# Outline: as §1
# [27] = target: GlcNAc(b1-4)Gal(b1-4)GlcNAc
# Outline: as §1
# [28] = target: GlcNAc(b1-4)GlcNAc
# Outline: as §1
# [29] = target: GlcNAc(b1-4)GlcNAc(b1-4)GlcNAc
# Outline: as §1
# [30] = target: GlcNAc(b1-4)GlcNAc(b1-4)GlcNAc(b1-4)GlcNAc(b1-4)GlcNAc
# Outline: as §1
# [31] = target: GlcNAc(b1-4)GlcNAc(b1-4)GlcNAc(b1-4)GlcNAc(b1-4)GlcNAc(b1-4)GlcNAc
# Outline: as §1
# [32] = target: GlcNAc(b1-4)[GlcNAc(b1-6)]GalNAc
# Outline: as §1
# [33] = target: GlcNAc(b1-6)Gal(b1-4)GlcNAc
# Outline: as §1
# [34] = target: GlcNAc(b1-6)GalNAc
# Outline: as §1
# [35] = target: GlcNAc6S(b1-3)Gal(b1-4)GlcNAc
# Outline: as §1
# [36] = target: Kdn(a2-3)Gal(b1-3)GalNAc
# Outline: as §1
# [37] = target: Kdn(a2-3)Gal(b1-3)GlcNAc
# Outline: as §1
# [38] = target: Kdn(a2-3)Gal(b1-4)Glc
# Outline: as §1
# [39] = target: Kdn(a2-3)Gal(b1-4)GlcNAc
# Outline: as §1
# [40] = target: Kdn(a2-3)Gal(b1-4)[Fuc(a1-3)]GlcNAc
# Outline: as §1
# [41] = target: Kdn(a2-6)Gal(b1-4)GlcNAc
# Outline: as §1
# [42] = target: Man(a1-2)Man(a1-2)Man(a1-3)Man
# Outline: as §1
# [43] = target: Man(a1-2)Man(a1-2)Man(a1-6)[Man(a1-3)]Man
# Outline: as §1
# [44] = target: Man(a1-2)Man(a1-3)Man
# Outline: as §1
# [45] = target: Man(a1-2)Man(a1-3)[Man(a1-2)Man(a1-6)]Man
# Outline: as §1
binder,measurement,setting,value
"MXA PilAct-eGFP (Myxococcus xanthus), Q59589 (protein) MRVSRFNPRNRGFTLIELMIVVAIIGILAAIAIPNFIKFQARSKQSEAKTNLKALYTAQKSFFSEKDRYSDFANEIGFAPERGNRYGYRVSAAAGDCEVRNAADLPVPAAGVPCISNDSFRFGANSAIDDPTPVVARFVPQGAAGWNTTLGVQPTIADCPNCNFFAGARGNADNEATFDDWVIAGFEGSGQVGPCSEAGNVASGTPYNTRNDVACDGAAQ",glycan array binding signal (z-score),[1],-0.062
same,glycan array binding signal (z-score),[2],-0.363
same,glycan array binding signal (z-score),[3],-0.064
same,glycan array binding signal (z-score),[4],0.04
same,glycan array binding signal (z-score),[5],-0.007
same,glycan array binding signal (z-score),[6],0.474
same,glycan array binding signal (z-score),[7],-0.438
same,glycan array binding signal (z-score),[8],0.175
same,glycan array binding signal (z-score),[9],1.33
same,glycan array binding signal (z-score),[10],3.99
same,glycan array binding signal (z-score),[11],2
same,glycan array binding signal (z-score),[12],1.01
same,glycan array binding signal (z-score),[13],0.674
same,glycan array binding signal (z-score),[14],2.14
same,glycan array binding signal (z-score),[15],3.85
same,glycan array binding signal (z-score),[16],0.384
same,glycan array binding signal (z-score),[17],-0.567
same,glycan array binding signal (z-score),[18],-0.168
same,glycan array binding signal (z-score),[19],-0.939
same,glycan array binding signal (z-score),[20],-0.657
same,glycan array binding signal (z-score),[21],0.234
same,glycan array binding signal (z-score),[22],-0.983
same,glycan array binding signal (z-score),[23],-0.861
same,glycan array binding signal (z-score),[24],-0.095
same,glycan array binding signal (z-score),[25],1.16
same,glycan array binding signal (z-score),[26],0.014
same,glycan array binding signal (z-score),[27],0.606
same,glycan array binding signal (z-score),[28],0.091
same,glycan array binding signal (z-score),[29],0.101
same,glycan array binding signal (z-score),[30],-0.618
same,glycan array binding signal (z-score),[31],0.147
same,glycan array binding signal (z-score),[32],-1.04
same,glycan array binding signal (z-score),[33],0.394
same,glycan array binding signal (z-score),[34],-0.63
same,glycan array binding signal (z-score),[35],-0.184
same,glycan array binding signal (z-score),[36],-0.538
same,glycan array binding signal (z-score),[37],0.462
same,glycan array binding signal (z-score),[38],-1.21
same,glycan array binding signal (z-score),[39],-0.846
same,glycan array binding signal (z-score),[40],-1.11
same,glycan array binding signal (z-score),[41],-0.849
same,glycan array binding signal (z-score),[42],-0.247
same,glycan array binding signal (z-score),[43],-0.615
same,glycan array binding signal (z-score),[44],0.412
same,glycan array binding signal (z-score),[45],-0.808

# 2 records drawn at random from the list so far, as already listed:
binder,measurement,setting,value
"MXA PilAct-eGFP (Myxococcus xanthus), Q59589 (protein) MRVSRFNPRNRGFTLIELMIVVAIIGILAAIAIPNFIKFQARSKQSEAKTNLKALYTAQKSFFSEKDRYSDFANEIGFAPERGNRYGYRVSAAAGDCEVRNAADLPVPAAGVPCISNDSFRFGANSAIDDPTPVVARFVPQGAAGWNTTLGVQPTIADCPNCNFFAGARGNADNEATFDDWVIAGFEGSGQVGPCSEAGNVASGTPYNTRNDVACDGAAQ",glycan array binding signal (z-score),[38],-1.21
same,glycan array binding signal (z-score),[6],0.474
